PubChem BioAssay AID1508597, Cure First | 2020

- Screen: 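Knock-downs altering ovarian cancer cell survival with or without PARP inhibitor rucaparib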 (primary screen)
- System: human ovarian carcinoma lines grown from tumours: OCI-P5x (papillary serous) and OCI-C5x (clear cell)
- Knock-down reagent: siRNA pool against human genes, 1.25 pmol siRNA per well
- Timing: 72 h or 96 h, depending on the cell culture
- Conditions: rucaparib 20 µM (about IC30) or vehicle, present until read-out
- Rucaparib or vehicle: Rucaparib
- Cell line: OCI-P5x (serous)
- Read-out: 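ATP luminescence measured at 72 or 96 h according to the culture, then normalised and expressed as percent viability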
- Scale: viability, normalised: higher = more viable cells remaining
- Rule for the call: 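a well counts as a hit if its normalised viability is under 80 percent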
- Calls: active = viability under 80%; inactive = viability 80% or more
This is a random part of the about 2,100 reagents, under one of the conditions tested. 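Calls flag viability under 80% in either arm, not effects specific to rucaparib; the reference for percent is not stated.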 Some reagents were tested in more than one well and are listed for each. Reagent sequences are not shown. Not stated in the record: the 100% reference.

gene	technical replicate	viability, normalised (%)	activity call
PHF2	1	54.1	active
PHF2	2	59	active
PHF2	3	46.9	active
DDX1	1	60.1	active
DDX1	1	70.7	active
DDX1	2	62.1	active
DDX1	2	62.2	active
DDX1	3	69.4	active
DDX1	3	56.1	active
HSPB8	1	115	inactive
HSPB8	2	119	inactive
HSPB8	3	119	inactive
KPNA2	1	89.1	inactive
KPNA2	2	110	inactive
KPNA2	3	95.2	inactive
CBX5	1	75.6	active
CBX5	1	87.6	inactive
CBX5	2	95.1	inactive
CBX5	2	88	inactive
CBX5	3	73.6	active
CBX5	3	79.4	active

Reformatted: entries from further up
DDX1, technical replicate 1
- viability, normalised (%): 60.1
- activity call: active

DDX1, technical replicate 1
- viability, normalised (%): 70.7
- activity call: active

Continued:
gene	technical replicate	viability, normalised (%)	activity call
CDK11A	1	97.3	inactive
CDK11A	1	81	inactive
CDK11A	2	95.5	inactive
CDK11A	2	86.8	inactive
CDK11A	3	88.5	inactive
CDK11A	3	68.7	active
PTTG2	1	36.9	active
PTTG2	2	49	active
PTTG2	3	46.7	active
DGKB	1	107	inactive
DGKB	2	83.4	inactive
DGKB	3	112	inactive
TP53	1	70.3	active
TP53	1	119	inactive
TP53	1	45.5	active
TP53	2	101	inactive
TP53	2	43.4	active
TP53	2	92.6	inactive
TP53	3	70.4	active
TP53	3	62.9	active
TP53	3	95.5	inactive
PRG3	1	54	active
PRG3	2	46.4	active
PRG3	3	56.5	active
PTGR1	1	47	active
PTGR1	2	50.3	active
PTGR1	3	46.3	active
PMS2P3	1	40.5	active
PMS2P3	2	52.2	active
PMS2P3	3	71.7	active
SMARCA1	1	45.6	active
SMARCA1	2	53.9	active
SMARCA1	3	49	active
H4C6	1	67.8	active
H4C6	2	65.7	active
H4C6	3	64.3	active
